Assay results taken from article PMC8789055, “Structural and biochemical characterization of human Schlafen 5”.
Positions count from the first letter of the chain named. The comparison behind a weaker result is the experiment's own reference, which may not be listed here. Tags and fusion partners may be left off the protein sequences shown. For some of these results: For at least one entry, the source does not settle the construct or the ends of the probe.

How the values were obtained:
[1] = molecular target: T1, SLFN5 1-336 R271E (Homo sapiens) (UniProt Q08AF3); assay: fluorescence anisotropy; details: FA: 2x buffer 100 mM HEPES pH 8.0, 100 mM NaCl mixed 1:1 with 100 nM (final) FAM ligand, 30 min on ice, recombinant protein, residues 1-336, protein details: C-terminal His6
T1 sequence (looked up): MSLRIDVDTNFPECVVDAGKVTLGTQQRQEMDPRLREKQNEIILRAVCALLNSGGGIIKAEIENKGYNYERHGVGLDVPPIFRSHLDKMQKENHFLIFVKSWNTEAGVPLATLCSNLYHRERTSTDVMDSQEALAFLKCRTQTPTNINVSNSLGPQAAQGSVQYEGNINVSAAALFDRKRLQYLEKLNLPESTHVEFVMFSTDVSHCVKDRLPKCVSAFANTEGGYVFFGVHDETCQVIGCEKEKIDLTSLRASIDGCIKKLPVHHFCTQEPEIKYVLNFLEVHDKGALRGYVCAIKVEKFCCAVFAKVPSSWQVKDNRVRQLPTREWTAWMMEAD

[2] = molecular target: T2, SLFN5 1-336 R326E (Homo sapiens) (UniProt Q08AF3); assay: fluorescence anisotropy; details: FA: 2x buffer 100 mM HEPES pH 8.0, 100 mM NaCl mixed 1:1 with 100 nM (final) FAM ligand, 30 min on ice, recombinant protein, residues 1-336, protein details: C-terminal His6
T2 sequence (looked up): T1 sequence (looked up) with E271R, R326E

[3] = molecular target: T3, SLFN5 full length (Homo sapiens) (UniProt Q08AF3); assay: competition EMSA; details: with 196 bp DNA, 20 nM each, DNA preferred; EMSA: 25 mM HEPES pH 7.0, 60 mM NaCl, 5% glycerol, 2 mM MgCl2, 0.5 mM DTT, 40 nM substrate, 30 min on ice, gel at 4 C; recombinant protein; residues 1-891; protein details: N-terminal double FLAG, HRV 3C site; label: 5'-FAM
T3 sequence (looked up): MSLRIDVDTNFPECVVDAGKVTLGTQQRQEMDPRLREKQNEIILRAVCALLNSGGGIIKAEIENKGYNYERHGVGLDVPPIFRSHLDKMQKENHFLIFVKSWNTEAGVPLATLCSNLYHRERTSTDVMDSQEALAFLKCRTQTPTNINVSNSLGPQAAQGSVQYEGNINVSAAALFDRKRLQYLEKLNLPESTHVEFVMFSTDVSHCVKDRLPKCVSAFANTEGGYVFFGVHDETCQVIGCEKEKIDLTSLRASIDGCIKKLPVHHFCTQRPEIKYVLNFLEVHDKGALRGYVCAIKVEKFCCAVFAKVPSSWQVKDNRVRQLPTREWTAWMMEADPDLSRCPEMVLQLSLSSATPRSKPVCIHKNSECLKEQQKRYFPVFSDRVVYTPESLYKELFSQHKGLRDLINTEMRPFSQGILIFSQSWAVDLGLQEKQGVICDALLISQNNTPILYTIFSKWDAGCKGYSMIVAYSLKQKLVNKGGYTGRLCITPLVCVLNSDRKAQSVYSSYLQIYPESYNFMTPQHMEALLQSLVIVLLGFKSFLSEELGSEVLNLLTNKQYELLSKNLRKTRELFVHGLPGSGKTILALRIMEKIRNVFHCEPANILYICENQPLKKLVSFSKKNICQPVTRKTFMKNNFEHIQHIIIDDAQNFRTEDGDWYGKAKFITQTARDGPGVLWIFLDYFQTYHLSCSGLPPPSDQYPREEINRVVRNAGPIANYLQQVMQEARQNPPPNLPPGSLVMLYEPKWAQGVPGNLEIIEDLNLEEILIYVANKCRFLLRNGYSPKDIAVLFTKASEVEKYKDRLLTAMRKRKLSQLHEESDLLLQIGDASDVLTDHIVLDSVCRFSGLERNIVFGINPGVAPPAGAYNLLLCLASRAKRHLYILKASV

[4] = molecular target: T4, SLFN5 1-336 (Schlafen core domain) (Homo sapiens) (UniProt Q08AF3); assay: fluorescence anisotropy; details: FA: 2x buffer 100 mM HEPES pH 8.0, 100 mM NaCl mixed 1:1 with 100 nM (final) FAM ligand, 30 min on ice; recombinant protein; residues 1-336; protein details: C-terminal His6; label: 5'-FAM; single-stranded DNA
T4 sequence (looked up): T1 sequence (looked up) with E271R

[5] = label: 5'-FAM, single-stranded DNA

Question: Does “GUAGUCGUGGCCGAGUGGUUAAGGCGAUGGACUUGAAAUCCAUUGUGGUUUCCCCGCGCAGGUUCGAAUCCUGCCGACUACGCCA [tRNA(Ser)]” bind ([1]; label: 5'-FAM)?
Answer: binds more weakly

Question: Does “GUAGUCGUGGCCGAGUGGUUAAGGCGAUGGACUUGAAAUCCAUUGUGGUUUCCCCGCGCAGGUUCGAAUCCUGCCGACUACGCCA [tRNA(Ser)]” bind ([2]; label: 5'-FAM)?
Answer: binds more weakly

Question: Does “GUAGUCGUGGCCGAGUGGUUAAGGCGAUGGACUUGAAAUCCAUUGUGGUUUCCCCGCGCAGGUUCGAAUCCUGCCGACUACGCCA [tRNA(Ser)]” bind [3]?
Answer: binds more weakly

Question: Does TTTTT [5 dT] bind [4]?
Answer: binds more weakly

Question: Does TTTTTTTTTT [10 dT] bind [4]?
Answer: binds more weakly

Question: Does TTTTTTTTTTTTTTTTTTTT [20 dT] bind [4]?
Answer: binds more weakly

Question: Does “TTTTTTTTTTTTTTTTTTTTTTTTTTTTTTTTTTTTTTTTTTTTTTTTTGCTTTTTTTTT (double strand) [60 bp DNA (60bp_A/T_GC)]” bind ([1]; label: 5'-FAM (fwd))?
Answer: binds more weakly

Question: Does “TTTTTTTTTTTTTTTTTTTTTTTTTTTTTTTTTTTTTTTTTTTTTTTTTGCTTTTTTTTT (double strand) [60 bp DNA (60bp_A/T_GC)]” bind ([2]; label: 5'-FAM (fwd))?
Answer: binds more weakly

Question: Does “TTTTTTTTTTTTTTTTTTTTTTTTTTTTTTTTTTTTTTTTTTTTTTTTTTTTTTTTTTTT [60 dT]” bind [1, 5]?
Answer: binds more weakly

Question: Does “TTTTTTTTTTTTTTTTTTTTTTTTTTTTTTTTTTTTTTTTTTTTTTTTTTTTTTTTTTTT [60 dT]” bind [2, 5]?
Answer: binds more weakly
